These results are taken from paper PMC7048058.

The chains behind the UniProt entries cited, without tags or fusion partners.
UniProt P16110: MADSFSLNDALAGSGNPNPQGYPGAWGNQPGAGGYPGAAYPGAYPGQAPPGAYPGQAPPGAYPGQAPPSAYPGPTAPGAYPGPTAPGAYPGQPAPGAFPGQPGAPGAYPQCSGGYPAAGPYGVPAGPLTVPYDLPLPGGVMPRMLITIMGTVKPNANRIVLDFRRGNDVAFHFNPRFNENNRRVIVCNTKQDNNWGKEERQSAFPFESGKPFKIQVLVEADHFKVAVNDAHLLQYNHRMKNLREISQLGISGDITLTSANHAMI

No constants are given. Whether binding was seen depends on the method and setting. Binding seen in cells or lysates may run through a third protein. Some entries that bind do so weakly or less than the wild type. Where a sequence is shown, tags or fusion partners need not be part of it.

The target in this experiment is T1, Histone deacetylase 8 (mouse (endogenous in RAW264.7)) (UniProt Q8VH37).
T1 sequence: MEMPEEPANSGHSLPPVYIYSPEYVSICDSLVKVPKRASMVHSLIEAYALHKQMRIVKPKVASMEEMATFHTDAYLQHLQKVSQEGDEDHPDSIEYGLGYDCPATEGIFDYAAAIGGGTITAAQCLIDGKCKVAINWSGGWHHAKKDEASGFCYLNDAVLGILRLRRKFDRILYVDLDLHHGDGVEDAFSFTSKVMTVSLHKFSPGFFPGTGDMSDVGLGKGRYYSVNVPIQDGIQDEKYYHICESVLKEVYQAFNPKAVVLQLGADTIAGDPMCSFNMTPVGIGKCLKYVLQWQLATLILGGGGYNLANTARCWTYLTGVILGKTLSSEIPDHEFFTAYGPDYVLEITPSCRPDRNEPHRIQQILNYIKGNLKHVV
Kind of experiment: co-IP; RAW264.7 cell lysate (cells treated with NS, IL-4 or IL-4 and PCI-34051); anti-HDAC8 or isotype IgG overnight at 4 °C, protein A/G Sepharose beads, western blot with Gal-3 and HDAC8 antibodies.

Take Galectin-3 (from UniProt P16110 1-264): the binding entry is reported as “binds”.
